Library screen at single concentrations

Protein sequences, listed by entry. Tags and fused reporters are not part of them.
UniProt P9WNZ1, whole entry: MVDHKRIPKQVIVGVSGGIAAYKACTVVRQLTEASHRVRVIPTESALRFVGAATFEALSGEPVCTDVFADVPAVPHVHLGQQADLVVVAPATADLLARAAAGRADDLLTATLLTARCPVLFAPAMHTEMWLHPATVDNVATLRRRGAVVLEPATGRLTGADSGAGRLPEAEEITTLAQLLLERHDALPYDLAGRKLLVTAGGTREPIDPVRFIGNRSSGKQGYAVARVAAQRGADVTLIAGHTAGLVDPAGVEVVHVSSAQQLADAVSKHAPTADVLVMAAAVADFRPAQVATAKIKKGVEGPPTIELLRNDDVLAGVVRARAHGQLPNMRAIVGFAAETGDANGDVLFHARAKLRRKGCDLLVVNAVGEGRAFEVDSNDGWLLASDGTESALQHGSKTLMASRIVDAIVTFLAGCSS
UniProt P9WFT3, whole entry: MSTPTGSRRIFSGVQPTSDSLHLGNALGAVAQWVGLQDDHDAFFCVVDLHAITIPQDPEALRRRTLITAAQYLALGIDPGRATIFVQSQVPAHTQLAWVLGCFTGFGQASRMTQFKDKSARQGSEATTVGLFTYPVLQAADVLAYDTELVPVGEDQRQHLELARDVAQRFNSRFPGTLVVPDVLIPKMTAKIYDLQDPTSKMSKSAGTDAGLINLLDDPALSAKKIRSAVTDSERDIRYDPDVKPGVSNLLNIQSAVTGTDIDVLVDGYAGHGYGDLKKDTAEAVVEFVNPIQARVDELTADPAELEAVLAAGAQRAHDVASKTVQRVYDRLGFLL

From ChEMBL document CHEMBL3988442, “University of Dundee, Small-Polar-MMV Screening Library” (2021).

CoaBC: 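Enzyme assay of CoaBC with a phosphate dye (Biomol Green) read at 650 nm. Target: Coenzyme A biosynthesis protein CoaBC, Mycobacterium tuberculosis (UniProt P9WNZ1). Concentration: 30 µM. Higher reads as stronger inhibition, judged from the few compounds that gave an IC50. Most strong results did not repeat in a second test. Size under these conditions: about 67,000 compounds, about 40 of them at 50% or above in at least one test.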
MtTrpRS: 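Enzyme assay of tryptophanyl-tRNA synthetase; the read-out is not stated. Target: Tryptophan-tRNA ligase, Mycobacterium tuberculosis (UniProt P9WFT3). Concentration: 10 µM. Direction is not recorded; retested compounds ran higher, which suggests that high means inhibition. Size under these conditions: about 65,000 compounds, about 64 of them at 50% or above in at least one test.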

Results are given as percent effect. The controls that fix the scale are not given in the record; negative values are as filed. Compounds were drawn at random from those tested, without regard to their results. Two or more numbers in one place are separate tests of the same structure; such repeats can differ widely. A dash means the value is not listed here; it may have been measured.

SMILES | CoaBC | MtTrpRS
O=C1CC(NCc2ncc[nH]2)CN1CCc1cccc(Cl)c1 (configuration not stated) | 6.277 | -4.509
CC(C)(C)NC(=O)c1ccccc1NC(=O)c1ccncc1 | 0.8526 | 3.006
COCc1cncc2c1CCN(C(=O)c1ccoc1C)C2 | -1.523 | -4.856
CC(C)Cc1nc(CSC2CCCN(c3cnn(C)c3)C2=O)no1 (configuration not stated) | 4.177 | 1.627
O=C(CCc1ccncc1)N1CCCC(N2CCNC2=O)C1 (configuration not stated) | 2.911 | -0.2719
O=C(c1ccco1)N1C[C@H]2CCCN(Cc3ccc(F)cc3)[C@H]2C1 | 4.622 | -2.79
CC(C)n1cc2cc(NC(=O)CCS(C)(=O)=O)ccc2n1 | -1.208 | 18.91
COc1ccc(OCCc2cc(C3CCN(CC(C)C)C3)n[nH]2)cc1 (configuration not stated) | -11.1 | -4.617
O=C(Cc1cccnc1)NC1CCCN(CCCc2ccccc2)C1 (configuration not stated) | 3.73 | 1.614
CC(=O)N(CCc1ccccc1)CC(=O)NC1(C#N)CC1 | -0.369 | -2.2
O=C1CN(c2ccc(C(=O)N3CCc4ccccc43)cn2)CCN1 | 2.642 | 0
CCn1cc(NC(=O)NCC(C)N(C)C)cn1 (configuration not stated) | 2.1 | 16.73
Cc1nnc(C2CCN(c3ccc(F)cc3)CC2)o1 | -0.8589 | -5.21
Cc1cc(C(=O)N2CCCC(C)C2)ccc1NCc1nc(C(C)C)no1 (configuration not stated) | -0.3871 | 1.071
CN(C)C(=O)c1cccnc1SCc1ccccc1C#N | 2.184 | -
CCCN(Cc1cccnc1)C(=O)C1CCCN(C)C1 (configuration not stated) | -5.556 | -3.783
O=C(NCCN1CCOC1=O)c1cc(-c2ccccc2)on1 | 7.744 | -3.25
CN1CCCN(C[C@@H]2CN(c3nc(C(N)=O)cs3)C[C@@H]2CO)CC1 | -14.56 | -0.757
O=c1c2ccccc2nc2n1CCC2O (configuration not stated) | 24.15 and 15.87 | 3.84
NC(=O)Cc1ccc(NC(=O)C2CCOCC2)cc1 | -9.106 | -1.263
CC(C)CC(=O)N1CCC(Nc2nc(O)cc(-c3ccsc3)n2)CC1 | 3.881 | 2.891
O=C(NC1CCN(c2ncccc2F)C1)c1cccc(-n2ccnc2)c1 (configuration not stated) | -10.89 | 3.039
O=C(NCc1ccccn1)N(Cc1ccc(F)cc1F)C1CC1 | 3.599 | -1.967
COCc1noc(CN2CCCCC2CCc2cccs2)n1 (configuration not stated) | -4.444 | -2.976
CC(C)N1CCCn2nc(C(=O)NCc3ccccc3F)cc2C1 | -6.143 | 0.5228
Cc1ccc2cc(C3(O)CCN(C(=O)[C@@H]4CCCCN4)CC3)ccc2n1 | -10.85 | -3.232
CN1CCN(Cc2nc3ccccc3[nH]2)[C@H]2CS(=O)(=O)C[C@H]21 | -3.965 | -0.8382
CCC(CC)c1cc(C(=O)N2CCN(C(C)C(N)=O)CC2)on1 (configuration not stated) | 4.516 | -0.09141
CCc1nc(CN2CCCN(C(=O)CC(F)(F)F)CC2)cs1 | 3.409 | -7.268
CO[C@H]1CN(C(C)C)C[C@@H]1NC(=O)c1cc(-c2ccccc2O)n[nH]1 | 10.49 | -0.9054
O=C(O)c1c[nH]c2cc(NS(=O)(=O)c3ccc(Cl)cc3F)ccc12 | 3.106 | 8.992
COCCN1CCCC2(CCN(C(=O)c3cnc(O)cn3)C2)C1=O (configuration not stated) | -0.7317 | 0.7524
Fc1cnc(N2CC3(CCN(Cc4ccsc4)C3)C2)nc1 | -13.59 | -4.813
CN1CC(=O)N(c2ccsc2)CC12CCN(S(=O)(=O)c1ccccc1)C2 (configuration not stated) | 5.762 | 0
COc1ccc2c(c1)C(C(=O)N(C)CCCc1nccn1C)CC(=O)N2 (configuration not stated) | 3.226 | 3.846
O=C([C@@H]1COC[C@H]2CN(C3CCCC3)C[C@H]21)N1CCC(F)CC1 | 1.724 | -3.352
Cc1cccc(CN2CCOCC3(CCN(C4CCOCC4)C3)C2)c1 (configuration not stated) | -2.101 | -1.395
CCN1CC(C(=O)NCc2noc(Cc3ccccc3)n2)CCC1=O (configuration not stated) | -1.118 | -0.7236
Cc1cc(NCC2(O)CCOCC2)nc2ccccc12 | 14.91 | 0.5961
CC(C)c1nnc2n1CCN(C(=O)c1cc(Cl)c[nH]1)C2 | 5.627 | -4.16
CC1CCCN(c2ccccc2OCC(=O)NC2CC2)C1 (configuration not stated) | -6.452 | -2.391
CN(CCCc1n[nH]c(N)c1C#N)C(=O)NC1CC1 | -3.748 | -6.612
O=c1ccc2c(n1CC1CC1)CCC(NS(=O)(=O)C1CC1)C2 (configuration not stated) | -1.854 | 4.018
CC(C)c1cc(C(=O)NCC2(C(N)=O)CCOCC2)nn1C(C)(C)C | 1.229 | -1.41
CCNc1nnc(SCC(=O)N2CCN(Cc3ccc(Cl)s3)CC2)s1 | -6.731 | 0.7936
Cc1nn(C)c(Cl)c1C1CCCN1C(=O)c1ccc2c(c1)COC2 (configuration not stated) | 5.702 | -4.993
Cc1ccccc1OCCCC(=O)N(C)CCC#N | 9.053 | 2.803
CN(C)C(=O)[C@H]1CCS(=O)(=O)[C@@H]2CN(c3ncc(F)cn3)C[C@H]12 | -1.856 | -
CCCN1CCN(C(=O)c2cc3ccccc3cn2)[C@H]2CS(=O)(=O)C[C@H]21 | 11.9 | -2.43
Cc1n[nH]c(C)c1CCC(=O)N1CCc2c(nc[nH]c2=O)C1 | 5.646 | 1.989
CCn1cnnc1C1CCN(C(=O)c2cnn(C(C)(C)C)c2)CC1 | 1.324 | 0.1467
COC(=O)CN(C(=O)c1cccc(F)c1Cl)c1cccc(C)n1 | -4.046 | -3.087
CN(C)[C@@H]1CN(C(=O)Cc2cccc(F)c2)[C@@H]2CCCO[C@H]12 | 2.228 | -
Cc1ncsc1CN1CC2(CCCC2)CC1=O | 0.2475 | -3.25
CC1CCc2nn(CCNC(=O)c3ccco3)c(=O)cc2C1 (configuration not stated) | 17.55 | -5.933
CCCNC(=O)NC(=O)CN1C=Nc2ccccc2S1(=O)=O | 3.259 | -5.598
COc1ccc(CC(=O)N2CCCC2Cn2cc(C)cn2)c(OC)c1 (configuration not stated) | 0.2611 | -1.254
Cc1nc(C(C)(C)C)sc1C(=O)NCCNc1ncccc1C#N | 1.048 | -3.249
O=C(CCc1ccsc1)N1CCC(n2cc(CO)nn2)CC1 | 3.186 | 3.457
CNC(=O)c1n[nH]c2c1C(c1cccc3c1OC(C)(C)C3)CC(=O)N2 (configuration not stated) | 0.2012 | -0.838
Nc1ccc(C(=O)N2CCCC(C(=O)CCc3ccccc3)C2)cn1 (configuration not stated) | 4.177 | 2.039
Cn1cnc2c1C(COCC1CCOCC1)CN(C1CCOCC1)C2 (configuration not stated) | 1.295 | 6.344
COc1ccc(C(=O)C2CCCN(Cc3cccc(F)c3)C2)c(OC)c1 (configuration not stated) | 4.598 | -0.8653
Cn1cnnc1C1CCCN(C(=O)NCCCn2cccn2)C1 (configuration not stated) | -3.106 | -5.946
CN(Cc1nnc(C2CC2)o1)C1CCN(CCCc2cnn(C)c2)C1 (configuration not stated) | -1.956 | 2.111
O=C(CC1CCc2ccccc21)N1CCC(O)(Cn2ccnc2)CC1 (configuration not stated) | -17.22 | 1.232
CC(C)C(=O)NCc1cc(Br)ccc1F | 2.558 | -3.15
Cc1nnc(NCCc2coc(-c3ccccc3)n2)c(C#N)c1C | 11.02 | -2.015
CCOC(C)c1noc(CN(C)C(=O)C2C(C)(C)C2(C)C)n1 (configuration not stated) | 12.74 | 1.847
c1ncn(CC2CCCCN2Cc2cn3ccsc3n2)n1 (configuration not stated) | -0.7895 | 13.24
COc1ccccc1OC1CN(C(=O)Cc2c(C)nc3ccccn23)C1 | 0.5115 | -0.7874
Cc1nn(C)c(N2CCOCC2)c1CNCc1ccc(N(C)C)nc1 | 6.005 | 24.45
Fc1cnc(N2CCCC3(CCN(Cc4ccco4)C3)C2)nc1 (configuration not stated) | -1.42 | 0.9931
CCc1c(C)nc2n(c1=O)CC(C(=O)Nc1nccs1)CS2 (configuration not stated) | -0.1267 | 13.56
CCN(CC)S(=O)(=O)N(C)Cc1ccncc1 | 3.629 | -3.269
O=C1CC(N(C(=O)CCc2c[nH]c3ccccc23)C2CC2)C(=O)N1 (configuration not stated) | 6.116 | 13.07
Cc1nc(CNC(=O)N(C)Cc2cnn(C)c2)cs1 | 6.351 | 16.93
O=C1CN(C(=O)C2CN(c3ccccc3)CCO2)CCN1 (configuration not stated) | 1.051 | -12.72
O=C(Nc1cccc(CNCc2csc(Br)c2)c1)C1CC1 | 1.503 | 5.75
CN(CCN1CCOCC1)C(=O)CCCOCCc1ccccc1 | 5.263 | -3.298
Cn1cc(C[C@H]2[C@@H](OCC3CC3)CCN2C(=O)c2ccc[nH]2)cn1 | -2.349 | -4.17

Some entries from above, unchanged:

| SMILES | CoaBC | MtTrpRS |
|---|---|---|
| `CN(CCN1CCOCC1)C(=O)CCCOCCc1ccccc1` | 5.263 | -3.298 |
| `CCCNC(=O)NC(=O)CN1C=Nc2ccccc2S1(=O)=O` | 3.259 | -5.598 |
| `O=C(Nc1cccc(CNCc2csc(Br)c2)c1)C1CC1` | 1.503 | 5.75 |
| `COCc1cncc2c1CCN(C(=O)c1ccoc1C)C2` | -1.523 | -4.856 |
| `CCCN1CCN(C(=O)c2cc3ccccc3cn2)[C@H]2CS(=O)(=O)C[C@H]21` | 11.9 | -2.43 |
| `O=c1ccc2c(n1CC1CC1)CCC(NS(=O)(=O)C1CC1)C2` (configuration not stated) | -1.854 | 4.018 |